3 molecules from PMC10598736, “Structural insights into Rad18 targeting by the SLF1 BRCT domains” (The Journal of Biological Chemistry, 2023) can be followed below.

By UniProt entry, the sequences of proteins in these tests, tags left out. Where a name states a change or a piece, a line headed by the entry shows the natural chain unless it says otherwise.
UniProt Q9NS91: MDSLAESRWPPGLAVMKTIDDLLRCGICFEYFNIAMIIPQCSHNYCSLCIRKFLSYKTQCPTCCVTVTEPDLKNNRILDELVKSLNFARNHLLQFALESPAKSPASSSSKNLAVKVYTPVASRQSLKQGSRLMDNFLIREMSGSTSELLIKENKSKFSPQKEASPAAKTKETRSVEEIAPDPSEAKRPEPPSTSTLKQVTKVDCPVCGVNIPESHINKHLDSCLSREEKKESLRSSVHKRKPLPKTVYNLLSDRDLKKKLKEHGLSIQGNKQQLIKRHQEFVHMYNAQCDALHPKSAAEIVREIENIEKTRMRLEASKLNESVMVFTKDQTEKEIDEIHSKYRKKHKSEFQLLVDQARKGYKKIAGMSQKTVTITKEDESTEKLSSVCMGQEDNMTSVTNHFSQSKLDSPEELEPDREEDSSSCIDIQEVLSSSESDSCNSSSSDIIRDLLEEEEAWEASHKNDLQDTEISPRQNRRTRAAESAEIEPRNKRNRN

In assay [1] the target is T1, SLF1 tandem BRCT repeat (SLF1^tBRCT), residues 1-199, wild type (UniProt Q9BQI6).
T1 sequence: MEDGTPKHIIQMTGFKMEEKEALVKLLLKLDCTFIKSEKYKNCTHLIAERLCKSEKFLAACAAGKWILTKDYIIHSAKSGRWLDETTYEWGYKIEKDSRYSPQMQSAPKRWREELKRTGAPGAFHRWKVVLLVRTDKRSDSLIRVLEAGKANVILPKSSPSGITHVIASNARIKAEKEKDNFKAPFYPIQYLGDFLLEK
The assay is described as follows: condition: 1.3 mM peptide injected into 0.1 mM SLF1^tBRCT; ITC; MicroCal ITC 200, 25 °C, 20 mM Tris (pH 7.5), 200 mM sodium chloride; 1.3 mM Rad18 peptide or 6 mM BRCTide injected into 0.1 mM (Rad18 peptides) or 0.2 mM (BRCTide) SLF1^tBRCT in the cell; three independent repeats; both purified.

The target of assay [2] is full-length Rad18 S444E, strep-his-sumo-tagged (human) (UniProt Q9NS91). The assay is described as follows: pull-down; his-strep-sumo-tagged Rad18 (50 μg) held on streptactin beads, incubated with 50 μg SLF1^tBRCT at 4 °C for 60 min; 20 mM Tris (pH 7.5), 200 mM sodium chloride, 2 mM DTT; eluted with D-desthiobiotin, SDS PAGE; both purified.
Assay [3] concerns the target full-length Rad18, wild type, strep-his-sumo-tagged (human) (UniProt Q9NS91). The assay is described as above.

No constants are given. Whether binding was seen depends on the method and setting.

With “Rad18-pS442-2IA peptide (I446A/I447A) (from UniProt Q9NS91 436-452)”, the binding entry in assay [1] is reported as “no binding”.

Turning to “Rad18-pS442-4A peptide (I446A/I447A/L450A/L451A) (from UniProt Q9NS91 436-452)”, in assay [1], the binding result is “no binding”.

B1: SLF1 tandem BRCT repeat (SLF1^tBRCT), residues 1-199, wild type (domain or fragment, UniProt Q9BQI6 1-199, looked up)
chain: T1 sequence
notes: SMC5/6 localization factor 1 (SLF1), tandem BRCT repeat at the N-terminus, residues 1-199; coding region optimized for E. coli and synthesized; also called WT; SMC5/6 localization factor 1 tBRCT; source: E. coli BL21 Rosetta (DE3), purified (Ni-NTA, heparin, gel filtration)
As for B1, the binding result in assay [2] and in assay [3] was “no binding (tested: 50 μg SLF1^tBRCT on 50 μg Rad18)” throughout.
